# In PubChem BioAssay AID1347076 (National Center for Advancing Translational Sciences (NCATS), 2019):
# Hit rate of the full screen: of about 400,000 compounds, about 13,000 (3.2%) were called active. Inconclusive results, whose numbers are uncertain, are shown with a selection of clear calls. Calls come from the whole dose curve; as a rule, active = well fitted cell-killing curve with a large enough effect; inconclusive = small, poorly fitted or top-dose-only effect, or effect the other way; inactive = flat fitted curve, though single readings scatter. A potency beside an inconclusive call is a rough fit, not a confirmed value.
# Assay: qHTS assay for MDR1-selective chemotherapeutics: Primary screen using the drug-selected MDR subline cells KB-V1; note: nearly all actives have a fitted effect of over 60% in size
# Conditions: KB-V1 MDR cells viability, CellTiter-Glo, 72 h; activity change, negative = cytotoxicity: at 46.1 µM (top of the series)
# Summary of the method: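 Following 72 h at 37 degrees C with compound, KB-V1 cell viability was read by CellTiter-Glo luminescence, medium being phenol-red-free DMEM plus 10% FBS; concentration-response parameters came from normalized, curve-fitted qHTS data.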
# % is set by controls: 0 for no effect and ±100 for the full control effect; potency is the fitted concentration of half-maximal effect.
SMILES,Potency,"activity change, negative = cytotoxicity"
O=c1[nH]c(=O)n(-c2ccccc2Cl)c(O)c1C=NCCN1CCCCC1,"inconclusive: 7.31 µM [rising, partial curve, poor fit]",
Cc1ccc2c(c1)=C/C(=C\c1c(O)[nH]c(=O)[nH]c1=O)C(=O)N=2,"inconclusive: 25.9 µM [cytotoxic, single point]",
COc1ccccc1N1CCN(Cc2c(F)cccc2F)CC1,active: 14.6 µM,
CC(C)Cn1cc(C(=O)N2CCC3(CC2)OCCO3)c2c3ccccc3n(C)c2c1=O,"inconclusive: 1.84 µM [cytotoxic, full curve, poor fit]",
COC(=O)C1=C(c2ccc(F)cc2OCc2ccccc2)C[C@@H]2CC[C@H]1N2C(=O)NCCc1ccc(F)cc1,"inconclusive: 23.1 µM [cytotoxic, single point]",
CC12CCC3C(CC=C4CC(O)CCC43C)C1C/C(=C\c1ccccc1F)C2=O (centres undefined),,inactive: -2.05%
CCC(NC(=O)OC(C)(C)C)C(=O)Oc1cc(C)cc2oc(=O)c3c(c12)CCC3 (centres undefined),active: 14.6 µM,
CNS(=O)(=O)c1ccc(N=Cc2c(O)n(-c3cccc(C)c3)c(=O)[nH]c2=O)cc1,,inactive: 5.84%
Cc1ccc(-c2nc3ccccc3c(=O)n2-c2ccncc2)cc1,"inconclusive: 23.1 µM [cytotoxic, partial curve]",
CCC(C)NC(=O)c1c(N)n(CC2CCCO2)c2nc3ccccc3nc12 (centres undefined),"inconclusive: 29.1 µM [cytotoxic, single point]",
COc1ccc(-n2nc(C(=O)NCC(=O)N3CCC4(CC3)OCCO4)c3ccccc3c2=O)c(OC)c1,,inactive: 11.8%
COC(=O)C1=C(c2cc3ccccc3o2)C[C@@H]2CC[C@H]1N2C(=O)N1CCOCC1,active: 23.1 µM,
Cc1cccc(C)c1-n1nnnc1C(C1CC1)N1CCC(n2c(=O)[nH]c3ccccc32)CC1 (centres undefined),"inconclusive: 20.6 µM [cytotoxic, single point]",
COc1ccc(C(CNC(=O)CCc2ccsc2)N(C)C)cc1 (centres undefined),"inconclusive: 0.291 µM [rising, full curve, poor fit]",
OC(CN1CCOCC1)c1csc2ccccc12 (centres undefined),,inactive: -17.8%
O=c1c2ccccc2nc(-c2ccc(Cl)cc2Cl)n1-c1ccncc1,"inconclusive: 20.6 µM [cytotoxic, partial curve, poor fit]",
CCc1ccc(-n2c(O)c(/C=N/NC(=O)c3ccncc3)c(=O)[nH]c2=O)cc1,"inconclusive: 18.4 µM [rising, partial curve, poor fit]",
COc1ccc(OCC(=O)N2CCN(Cc3c[nH]c4ccccc34)CC2)cc1,active: 16.4 µM,
COP(=O)(NC(=O)C(Cl)(Cl)Cl)OC,"inconclusive: 1.46 µM [rising, partial curve]",
C[C@]12CCC3C(CC[C@H]4C[C@H](O)CC[C@]34C)C1CCC2=O (some centres undefined),,inactive: -0.967%
CCCC(C)C1(CC)C(=O)NC(=Nc2ccccc2)NC1=O (centres undefined),"inconclusive: 23.1 µM [cytotoxic, partial curve]",
CC1(C)N=C(c2ccccc2)[C@@H]2C(c3ccc([N+](=O)[O-])cc3)N21 (some centres undefined),"inconclusive: 9.2 µM [cytotoxic, partial curve]",

# Taken from above:
# Under Potency, `O=c1c2ccccc2nc(-c2ccc(Cl)cc2Cl)n1-c1ccncc1` reads inconclusive: 20.6 µM [cytotoxic, partial curve, poor fit]
# Under Potency, `COC(=O)C1=C(c2ccc(F)cc2OCc2ccccc2)C[C@@H]2CC[C@H]1N2C(=O)NCCc1ccc(F)cc1` reads inconclusive: 23.1 µM [cytotoxic, single point]
# Under Potency, `Cc1ccc2c(c1)=C/C(=C\c1c(O)[nH]c(=O)[nH]c1=O)C(=O)N=2` reads inconclusive: 25.9 µM [cytotoxic, single point]

# The results go on.

SMILES,Potency,"activity change, negative = cytotoxicity"
COc1ccc(-c2nc3ccccc3c(=O)n2-c2nccs2)cc1,,inactive: -17.8%
CCCCOC(=O)COc1cc(C)cc2oc(=O)c3c(c12)CCC3,"inconclusive: 20.6 µM [cytotoxic, single point]",
Cc1cccc(OP(=O)(NCc2ccccc2)Oc2cccc(C)c2)c1,"inconclusive: 6.51 µM [cytotoxic, partial curve, poor fit]",
COc1ccc(CCNC(C)CCc2ccc(OC)cc2)cc1 (centres undefined),"inconclusive: 20.6 µM [cytotoxic, partial curve]",
O=c1c2ccccc2nc(-c2ccccc2)n1-c1ccccc1O,"inconclusive: 23.1 µM [rising, single point]",
COc1ccc(S(=O)(=O)Cc2ccc(C(=O)N3CCC4(CC3)OCCO4)o2)cc1,,inactive: -5.45%
COc1ccc(CN2Cc3cnnn3-c3ccccc3C2C#N)cc1 (centres undefined),"inconclusive: 9.2 µM [cytotoxic, partial curve, poor fit]",
O=C1NCN(c2ccccc2)C12CCN(C(c1ccccc1)c1nnnn1C1CCCC1)CC2 (centres undefined),"inconclusive: 14.6 µM [cytotoxic, partial curve]",
O=[N+]([O-])c1cccc(C2N3CCCN23)c1 (centres undefined),,inactive: -0.207%
COc1ccc(CCNC(=O)c2c(N)n(CCN3CCOCC3)c3nc4ccccc4nc23)cc1,"inconclusive: 29.1 µM [cytotoxic, single point]",
O=C1NC(=O)C(Cc2ccccc2)(Cc2ccccc2)C(=O)N1Cc1ccccc1,active: 16.4 µM,
C[C@]12CCC(=O)C=C1CC[C@@H]1[C@@H]2CC[C@]2(C)C(=O)CC[C@@H]12,"inconclusive: 18.4 µM [cytotoxic, single point]",
CC(=O)OC(C)(C)/C=C/C(=O)C(C)(O)C1[C@H](O)C[C@@]2(C)C3CC=C4C(CC[C@@H](O)C4(C)C)[C@]3(CO)C(=O)C[C@]12C (some centres undefined),active: 3.66 µM,
Cc1cc(C)c(C(=O)N2CCC3(CC2)OCCO3)c(C)c1,,inactive: 0.533%
CCOC(=O)[C@]12Cc3cc(C)ccc3[C@H]1N(C)C(=O)c1ccccc12,,inactive: -13.4%
CC(C)c1ccc(OCC(=O)N2CCN(C)CC2)c(Br)c1,"inconclusive: 23.1 µM [cytotoxic, partial curve]",
COc1cccc(-n2c(/C=C/c3ccc(O)c(O)c3)nc3ccccc3c2=O)c1,"inconclusive: 23.1 µM [cytotoxic, single point]",
CC12CC(=O)C3C(CCC4CC(=O)C=CC43C)C1CCC2=O (centres undefined),,inactive: -5.32%
O=C1CC(=O)N(c2cccc(F)c2)C(=O)N1,"inconclusive: 23.1 µM [rising, single point]",
CCNc1cc(N2CCN(C)CC2)ccc1[N+](=O)[O-],,inactive: -0.521%
O=C1CN=C(c2ccccc2Cl)c2cc(Cl)ccc2N1Cc1cccc(Cl)c1,active: 14.6 µM,
CCOc1c(Cl)cc(CNC(C)C(O)c2ccccc2)cc1OC (centres undefined),"inconclusive: 13 µM [cytotoxic, partial curve, poor fit]",
